Results on 19 molecules are retold here after patent EP3492066A1, “COSMETIC PREPARATIONS HAVING A CALMING EFFECT” (Beiersdorf AG, priority 2010, dated 2012).

Some entries repeat one wording, which the source may state once for all of them.

The test system of the series is Probandinnen. The experiment in a line: Preselection smelling test: subjects choose fragrances whose scent character they find calming. Type of series: in vivo, Menschen. As to conditions: 0,5 %ig in Propylenglykol; 10 Probandinnen, 20 bis 50 Jahre; subjective choice by smelling.
In the case of `C=CC(C)CCCC(C)(C)O` (stereo not shown) [2,6-Dimethyl-7-octen-2-ol], the “Duftcharakter, wie von den Probandinnen empfunden” value is given as “Düfte mit beruhigendem Duftcharakter”. As for `CCCCCCC1(C)CCC(=O)O1` (stereo not shown) [5-hexyldihydro-5-methyl-2(3H)-furanone], the “Duftcharakter, wie von den Probandinnen empfunden” value is listed as “Düfte mit beruhigendem Duftcharakter”. `CC(=O)CCC=C(C)C` [6-Methyl-5-Hepten-2-one]: the “Duftcharakter, wie von den Probandinnen empfunden” value is recorded as “Düfte mit beruhigendem Duftcharakter”. Take `CCCCCOC(=O)c1ccccc1O` [Amyl salicylate]: the “Duftcharakter, wie von den Probandinnen empfunden” value is “eher stimulierend”.

Take `O=C(OCc1ccccc1)c1ccccc1` [Benzyl benzoate]: the “Duftcharakter, wie von den Probandinnen empfunden” value is “neutrale Düfte”. As for `O=C(OCc1ccccc1)c1ccccc1O` [Benzyl salicylate], the “Duftcharakter, wie von den Probandinnen empfunden” value is reported as “neutrale Düfte”. Regarding `C[C@@H]1CC[C@H]2C(C)(C)[C@H]3C[C@@]12CC[C@@]3(C)O` [Cedrol], the “Duftcharakter, wie von den Probandinnen empfunden” value was “beruhigende Duftstoffe”. For `CC(C)=CCCC(C)CCO` (stereo not shown) [Citronellol] the value was “eher stimulierend”. As for `CCCCCC(C)=O` [Heptan-2-one], the “Duftcharakter, wie von den Probandinnen empfunden” value was “Düfte mit beruhigendem Duftcharakter”. Under `CCCCCCOC(=O)c1ccccc1O` [Hexyl salicylate] stands “neutrale Düfte”. Under `C=C(C)C1CC=C(C)CC1` (stereo not shown) [Limonen] stands “eher stimulierend”. For `C=CC(C)(O)CCC=C(C)C` (stereo not shown) [Linalool], the “Duftcharakter, wie von den Probandinnen empfunden” value was “beruhigende Duftstoffe”. For `CC(=O)C1=C(C)[C@@H]2C[C@@]3(C1)[C@H](C)CC[C@H]3C2(C)C` [Methyl cedryl ketone], the “Duftcharakter, wie von den Probandinnen empfunden” value was “neutrale Düfte”.

`CCCCCC1C(=O)CCC1CC(=O)OC` (stereo not shown) [Methyl dihydrojasmonate]: the “Duftcharakter, wie von den Probandinnen empfunden” value is reported as “neutrale Düfte”. With `CCCCCCCC(C)=O` [Nonan-2-one], the “Duftcharakter, wie von den Probandinnen empfunden” value was “Düfte mit beruhigendem Duftcharakter”. For `CCCCCCC(C)=O` [Octan-2-one] the value was “Düfte mit beruhigendem Duftcharakter”. For `CCCCCCCC=O` [Octanal] the value was “Düfte mit beruhigendem Duftcharakter”.

As to `OCCc1ccccc1` [Phenylethyl alcohol], the “Duftcharakter, wie von den Probandinnen empfunden” value is recorded as “neutrale Düfte”. Under `CCCCCC1CCCC(=O)O1` (stereo not shown) [Tetrahydro-6-pentyl-2H-pyran-2-one] stands “Düfte mit beruhigendem Duftcharakter”.
